Literature values, collected in patent US20250255847A1, “[…]s: Novel Drugs for Triple Negative Breast Cancer” (SIMMARON RSEARCH INC, priority 2024, published 2025).
Some of these results come from one statement about several compounds together. At least one structure is not confirmed: it was looked up by name or label, or the drawing left a doubt.

System: TNBC cells
Details: read-out: IC50 for death of TNBC cells; cited from earlier work

Compound	IC50 [µM]
NC(=O)CC[C@H](NC(=O)[C@@H]1CC[C@@H]2CCN(C(=O)CCCCCC#Cc3cccc4c3CN(C3CCC(=O)NC3=O)C4=O)C[C@H](NC(=O)c3cc4cc(C(F)(F)P(=O)(O)O)ccc4[nH]3)C(=O)N21)C(=O)NC(c1ccccc1)c1ccccc1 (some centres unmarked) [SD36]	> 5
O=[N+]([O-])c1ccc2c(c1)S(=O)(=O)C=C2 [stattic, reference compound]	> 5
